The other results are listed elsewhere or left out.
compound: CC1Cc2ccccc2N1C(=O)C1CCCN(C1)C(=O)CCl (mixture of isomers) [TRIM25 ligand 11 (diastereomer mixture)]; assay: probe-labelled cysteine peptide fold change vs DMSO (competition) (log2 fold change); higher = less target engagement (more negative = stronger competition); conditions: 10 µM; THP-1; incubation time: 4 h
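Note: competitive chemoproteomic profiling in live THP-1 cells with an iodoacetamide desthiobiotin (IA-DTB) probe, comparing probe-labelled peptide intensities in compound-treated cells against DMSO-treated controls.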

Amino acid sequences for entries named in this document (tags omitted). A change or cut given only in a name is not applied to a line headed by its entry.
UniProt P52888, whole entry, looked up: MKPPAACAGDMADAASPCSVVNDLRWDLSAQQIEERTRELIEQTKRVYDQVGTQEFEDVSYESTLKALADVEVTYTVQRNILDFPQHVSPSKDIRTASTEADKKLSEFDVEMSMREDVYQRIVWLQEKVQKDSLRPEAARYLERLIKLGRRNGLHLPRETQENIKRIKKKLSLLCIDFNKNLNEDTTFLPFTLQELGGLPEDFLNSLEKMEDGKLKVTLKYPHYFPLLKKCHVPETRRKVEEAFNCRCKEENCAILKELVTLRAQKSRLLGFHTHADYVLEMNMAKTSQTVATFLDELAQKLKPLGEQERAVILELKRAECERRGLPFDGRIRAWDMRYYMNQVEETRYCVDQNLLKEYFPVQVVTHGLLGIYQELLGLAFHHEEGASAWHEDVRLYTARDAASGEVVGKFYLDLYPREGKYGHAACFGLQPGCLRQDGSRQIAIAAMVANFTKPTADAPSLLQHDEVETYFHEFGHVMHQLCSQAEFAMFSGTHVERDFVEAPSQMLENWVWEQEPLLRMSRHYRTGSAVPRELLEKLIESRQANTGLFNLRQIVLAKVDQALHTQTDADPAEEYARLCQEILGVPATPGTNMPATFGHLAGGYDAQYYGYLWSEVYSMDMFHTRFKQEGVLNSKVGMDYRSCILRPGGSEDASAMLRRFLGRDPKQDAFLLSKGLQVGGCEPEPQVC
UniProt Q5JUR7: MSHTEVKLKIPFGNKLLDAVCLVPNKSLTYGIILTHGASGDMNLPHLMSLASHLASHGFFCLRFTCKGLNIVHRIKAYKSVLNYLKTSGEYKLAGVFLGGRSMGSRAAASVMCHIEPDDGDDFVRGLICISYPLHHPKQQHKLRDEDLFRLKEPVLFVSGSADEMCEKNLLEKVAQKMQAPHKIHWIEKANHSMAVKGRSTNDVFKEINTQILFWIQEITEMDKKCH
UniProt P62072: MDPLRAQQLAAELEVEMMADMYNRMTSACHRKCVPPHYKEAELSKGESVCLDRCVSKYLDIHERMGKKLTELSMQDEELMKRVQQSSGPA
UniProt Q9BV44: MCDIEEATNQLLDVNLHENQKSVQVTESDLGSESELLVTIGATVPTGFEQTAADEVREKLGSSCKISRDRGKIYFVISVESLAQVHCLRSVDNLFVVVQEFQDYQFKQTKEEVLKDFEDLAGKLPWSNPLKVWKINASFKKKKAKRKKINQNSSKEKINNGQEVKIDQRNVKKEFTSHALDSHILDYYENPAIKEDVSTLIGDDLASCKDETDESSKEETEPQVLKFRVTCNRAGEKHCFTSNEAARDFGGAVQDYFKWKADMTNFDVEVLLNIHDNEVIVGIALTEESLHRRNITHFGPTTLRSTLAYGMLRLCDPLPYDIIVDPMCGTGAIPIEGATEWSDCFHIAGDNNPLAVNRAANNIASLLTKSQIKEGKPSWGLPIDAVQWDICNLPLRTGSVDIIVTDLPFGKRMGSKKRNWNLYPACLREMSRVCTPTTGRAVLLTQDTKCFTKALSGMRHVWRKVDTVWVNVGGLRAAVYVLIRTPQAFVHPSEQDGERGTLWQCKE
UniProt Q5JTD0: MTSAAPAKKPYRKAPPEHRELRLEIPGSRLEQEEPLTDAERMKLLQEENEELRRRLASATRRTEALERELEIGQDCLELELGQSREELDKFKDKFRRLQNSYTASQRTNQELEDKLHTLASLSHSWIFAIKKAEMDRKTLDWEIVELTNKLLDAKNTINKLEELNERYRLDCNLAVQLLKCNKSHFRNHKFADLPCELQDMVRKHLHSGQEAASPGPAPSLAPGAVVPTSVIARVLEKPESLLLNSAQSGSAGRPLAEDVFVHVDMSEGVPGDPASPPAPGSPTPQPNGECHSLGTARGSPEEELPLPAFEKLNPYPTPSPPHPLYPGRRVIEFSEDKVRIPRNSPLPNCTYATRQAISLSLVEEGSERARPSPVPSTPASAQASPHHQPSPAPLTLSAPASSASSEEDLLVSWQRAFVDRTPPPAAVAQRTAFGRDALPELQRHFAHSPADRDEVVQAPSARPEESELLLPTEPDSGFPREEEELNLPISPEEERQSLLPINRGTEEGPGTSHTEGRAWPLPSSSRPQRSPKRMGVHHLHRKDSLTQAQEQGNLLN
UniProt Q04726: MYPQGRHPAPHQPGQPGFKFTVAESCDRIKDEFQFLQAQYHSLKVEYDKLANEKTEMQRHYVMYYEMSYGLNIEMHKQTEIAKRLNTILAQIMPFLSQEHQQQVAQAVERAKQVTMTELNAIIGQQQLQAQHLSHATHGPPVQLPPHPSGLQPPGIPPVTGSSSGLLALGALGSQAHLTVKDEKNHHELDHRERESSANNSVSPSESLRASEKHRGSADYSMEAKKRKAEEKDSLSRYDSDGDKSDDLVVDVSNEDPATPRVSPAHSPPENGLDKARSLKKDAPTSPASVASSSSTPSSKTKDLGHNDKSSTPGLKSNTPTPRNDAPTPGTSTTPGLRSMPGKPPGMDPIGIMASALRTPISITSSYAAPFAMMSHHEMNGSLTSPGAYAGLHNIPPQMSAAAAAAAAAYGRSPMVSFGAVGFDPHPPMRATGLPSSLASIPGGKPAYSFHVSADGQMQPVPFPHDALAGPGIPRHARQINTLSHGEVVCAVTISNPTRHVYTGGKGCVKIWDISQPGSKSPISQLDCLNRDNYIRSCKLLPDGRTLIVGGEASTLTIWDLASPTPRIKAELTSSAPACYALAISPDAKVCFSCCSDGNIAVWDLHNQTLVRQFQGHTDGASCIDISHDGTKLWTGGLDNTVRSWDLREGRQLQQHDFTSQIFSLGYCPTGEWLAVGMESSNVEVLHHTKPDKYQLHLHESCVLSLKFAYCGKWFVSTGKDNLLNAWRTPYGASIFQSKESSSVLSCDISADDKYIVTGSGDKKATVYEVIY
UniProt Q9Y6I9: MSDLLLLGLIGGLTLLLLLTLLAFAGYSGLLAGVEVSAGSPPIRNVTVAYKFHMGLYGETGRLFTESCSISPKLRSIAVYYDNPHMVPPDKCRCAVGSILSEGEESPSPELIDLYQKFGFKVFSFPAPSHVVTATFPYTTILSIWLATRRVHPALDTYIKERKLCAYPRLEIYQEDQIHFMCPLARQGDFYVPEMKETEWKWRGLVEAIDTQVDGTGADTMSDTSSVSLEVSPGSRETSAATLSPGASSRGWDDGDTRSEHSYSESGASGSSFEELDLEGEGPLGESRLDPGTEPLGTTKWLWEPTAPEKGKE
UniProt Q9UGI8: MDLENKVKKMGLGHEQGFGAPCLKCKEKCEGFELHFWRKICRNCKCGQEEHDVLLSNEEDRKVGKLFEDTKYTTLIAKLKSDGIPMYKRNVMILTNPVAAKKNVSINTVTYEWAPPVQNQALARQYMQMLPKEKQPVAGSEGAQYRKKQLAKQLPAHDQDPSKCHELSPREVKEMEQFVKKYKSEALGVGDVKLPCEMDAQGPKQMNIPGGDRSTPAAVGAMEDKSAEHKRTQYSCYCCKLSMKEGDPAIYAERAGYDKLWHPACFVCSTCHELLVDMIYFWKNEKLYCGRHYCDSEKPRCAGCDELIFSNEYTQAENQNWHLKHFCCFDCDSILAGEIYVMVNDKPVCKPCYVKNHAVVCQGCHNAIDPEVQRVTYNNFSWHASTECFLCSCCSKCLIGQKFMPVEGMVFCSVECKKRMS
UniProt Q9NXG2: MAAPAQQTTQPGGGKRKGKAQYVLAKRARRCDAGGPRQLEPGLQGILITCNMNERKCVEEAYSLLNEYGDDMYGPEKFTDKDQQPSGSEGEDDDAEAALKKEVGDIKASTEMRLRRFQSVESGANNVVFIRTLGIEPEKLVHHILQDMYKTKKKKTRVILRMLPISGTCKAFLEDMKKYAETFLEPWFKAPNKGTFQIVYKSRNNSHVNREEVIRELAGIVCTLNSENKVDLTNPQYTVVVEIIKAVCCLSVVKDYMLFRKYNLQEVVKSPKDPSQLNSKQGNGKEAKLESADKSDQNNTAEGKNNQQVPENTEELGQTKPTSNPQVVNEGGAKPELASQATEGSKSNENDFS
UniProt Q9NWX6: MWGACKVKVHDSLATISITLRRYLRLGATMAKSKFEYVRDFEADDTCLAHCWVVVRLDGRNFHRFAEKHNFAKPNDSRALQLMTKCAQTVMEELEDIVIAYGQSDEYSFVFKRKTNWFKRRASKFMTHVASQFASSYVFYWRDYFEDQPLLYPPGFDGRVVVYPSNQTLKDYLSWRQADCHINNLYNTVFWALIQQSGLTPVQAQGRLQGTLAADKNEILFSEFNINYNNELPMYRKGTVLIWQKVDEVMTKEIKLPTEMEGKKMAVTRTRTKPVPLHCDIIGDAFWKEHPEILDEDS
UniProt Q96J01: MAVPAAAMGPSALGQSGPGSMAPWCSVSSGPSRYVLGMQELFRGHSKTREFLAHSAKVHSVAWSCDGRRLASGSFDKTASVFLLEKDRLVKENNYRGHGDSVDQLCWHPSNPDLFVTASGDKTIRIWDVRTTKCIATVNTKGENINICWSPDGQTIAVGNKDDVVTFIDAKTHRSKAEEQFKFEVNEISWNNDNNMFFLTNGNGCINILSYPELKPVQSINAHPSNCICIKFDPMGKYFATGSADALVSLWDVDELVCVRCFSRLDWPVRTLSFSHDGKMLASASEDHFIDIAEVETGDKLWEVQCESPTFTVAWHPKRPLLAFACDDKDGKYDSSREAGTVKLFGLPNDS
UniProt Q6YHU6: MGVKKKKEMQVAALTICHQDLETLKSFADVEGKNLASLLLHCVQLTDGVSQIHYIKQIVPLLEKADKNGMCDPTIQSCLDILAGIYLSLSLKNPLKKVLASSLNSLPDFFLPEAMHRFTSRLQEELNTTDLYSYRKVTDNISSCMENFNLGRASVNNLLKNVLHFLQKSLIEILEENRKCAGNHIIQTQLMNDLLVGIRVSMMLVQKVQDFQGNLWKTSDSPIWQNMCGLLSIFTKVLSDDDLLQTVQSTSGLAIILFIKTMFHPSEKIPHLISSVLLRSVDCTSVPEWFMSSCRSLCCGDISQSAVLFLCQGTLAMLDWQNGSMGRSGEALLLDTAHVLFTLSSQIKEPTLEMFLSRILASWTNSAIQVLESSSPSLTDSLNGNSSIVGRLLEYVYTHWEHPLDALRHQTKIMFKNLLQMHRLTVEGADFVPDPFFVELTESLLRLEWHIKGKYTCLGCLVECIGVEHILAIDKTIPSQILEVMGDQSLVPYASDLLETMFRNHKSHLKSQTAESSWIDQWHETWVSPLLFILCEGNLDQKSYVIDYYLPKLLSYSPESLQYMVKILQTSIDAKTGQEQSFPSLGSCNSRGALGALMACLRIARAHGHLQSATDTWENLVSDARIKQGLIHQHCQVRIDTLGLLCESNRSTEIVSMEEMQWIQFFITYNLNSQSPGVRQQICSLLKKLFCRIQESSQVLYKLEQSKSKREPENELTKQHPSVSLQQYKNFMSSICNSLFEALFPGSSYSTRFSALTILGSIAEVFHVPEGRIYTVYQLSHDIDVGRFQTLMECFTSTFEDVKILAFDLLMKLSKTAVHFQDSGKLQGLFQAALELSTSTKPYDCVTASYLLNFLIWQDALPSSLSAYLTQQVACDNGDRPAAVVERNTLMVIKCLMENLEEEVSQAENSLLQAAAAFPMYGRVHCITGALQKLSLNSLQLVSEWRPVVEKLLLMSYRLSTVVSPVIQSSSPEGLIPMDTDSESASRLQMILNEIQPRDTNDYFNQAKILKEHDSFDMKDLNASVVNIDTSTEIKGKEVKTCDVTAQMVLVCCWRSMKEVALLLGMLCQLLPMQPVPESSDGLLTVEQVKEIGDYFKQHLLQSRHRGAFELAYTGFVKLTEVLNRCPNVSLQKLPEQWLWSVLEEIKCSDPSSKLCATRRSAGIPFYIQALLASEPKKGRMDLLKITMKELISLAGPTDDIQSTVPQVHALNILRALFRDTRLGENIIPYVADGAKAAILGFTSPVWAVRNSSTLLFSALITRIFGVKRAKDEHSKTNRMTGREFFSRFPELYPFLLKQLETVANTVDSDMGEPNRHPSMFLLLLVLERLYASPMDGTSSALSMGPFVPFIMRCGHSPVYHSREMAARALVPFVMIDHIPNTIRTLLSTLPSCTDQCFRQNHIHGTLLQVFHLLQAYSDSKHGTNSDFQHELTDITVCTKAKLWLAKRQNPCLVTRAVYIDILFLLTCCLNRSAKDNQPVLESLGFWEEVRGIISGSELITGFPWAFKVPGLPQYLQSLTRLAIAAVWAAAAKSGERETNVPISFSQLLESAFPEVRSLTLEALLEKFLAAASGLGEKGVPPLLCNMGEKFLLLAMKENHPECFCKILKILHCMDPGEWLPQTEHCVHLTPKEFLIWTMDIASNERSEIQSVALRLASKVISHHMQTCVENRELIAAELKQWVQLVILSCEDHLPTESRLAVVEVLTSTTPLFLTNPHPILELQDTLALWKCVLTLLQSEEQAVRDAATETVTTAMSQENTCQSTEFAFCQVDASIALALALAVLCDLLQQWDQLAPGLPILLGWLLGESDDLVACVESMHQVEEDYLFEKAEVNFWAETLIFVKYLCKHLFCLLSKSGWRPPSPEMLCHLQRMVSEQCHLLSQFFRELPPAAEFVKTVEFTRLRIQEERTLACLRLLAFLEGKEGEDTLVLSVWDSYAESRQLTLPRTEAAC

First: TDRD7_Q8NHU6_1029_CNQWSEEASMVFR (UniProt Q8NHU6)
Second: TCIRG1_Q13488_25_SEEVALVQLFLPTAAAYTCVSR (UniProt Q13488)
The “probe-labelled cysteine peptide fold change” value of the first is higher: 0.0828 for the first, -0.0973 for the second.

Going from “TIMM50_Q3ZCQ8_249_VVVVDCK (UniProt Q3ZCQ8)” to “TEP1_Q99973_2105_TPVLIHSFPACHR (UniProt Q99973)”, the “probe-labelled cysteine peptide fold change” value falls from 0.547 to -0.153.

Going from “THOP1_P52888_246_RKVEEAFNCR (UniProt P52888)” to “THBD_P07204_267_CQCPAGAALQADGR (UniProt P07204)”, the “probe-labelled cysteine peptide fold change” value rises from -0.0586 to 0.143.

First: TCP1_P17987_385_GANDFMCDEMER (UniProt P17987)
Second: TDRD7_Q8NHU6_699+706_HMTSECFVSLPFCGK (UniProt Q8NHU6)
The “probe-labelled cysteine peptide fold change” value of the first is lower: -0.0369 for the first, 0.27 for the second.

Compared with “TK1_P04183_230_LFAPQQILQCSPAN (UniProt P04183)”, “TEX30_Q5JUR7_129_GLICISYPLHHPK (UniProt Q5JUR7)” is lower in “probe-labelled cysteine peptide fold change” value: 0.105 for the first, -0.0992 for the second.

Compared with “TCP1_P17987_76_VLCELADLQDK (UniProt P17987)”, “TIMM10_P62072_29_MTSACHR (UniProt P62072)” is lower in “probe-labelled cysteine peptide fold change” value: 0.0382 for the first, -0.161 for the second.

First: TDRD7_Q8NHU6_692_KIEDYFHCK (UniProt Q8NHU6)
Second: TK1_P04183_206_ENCPVPGKPGEAVAAR (UniProt P04183)
The “probe-labelled cysteine peptide fold change” value of the first is higher: 0.057 for the first, -0.0318 for the second.

Compared with “TFCP2_Q12800_72_ILPFQYVLCAATSPAVK (UniProt Q12800)”, “THUMPD3_Q9BV44_434_VCTPTTGR (UniProt Q9BV44)” is lower in “probe-labelled cysteine peptide fold change” value: 0.138 for the first, -0.184 for the second.

Going from “TGFBR1_P36897_461_LRPNIPNRWQSCEALR (UniProt P36897)” to “TJAP1_Q5JTD0_350_NSPLPNCTYATR (UniProt Q5JTD0)”, the “probe-labelled cysteine peptide fold change” value falls from 0.0229 to -0.102.

Going from “TEP1_Q99973_2275_EADDTCIPR (UniProt Q99973)” to “TIAL1_Q01085_51_MITEHTSNDPYCFVEFYEHR (UniProt Q01085)”, the “probe-labelled cysteine peptide fold change” value rises from 0.00158 to 0.194.

Going from “TLE3_Q04726_528_SPISQLDCLNR (UniProt Q04726)” to “TEC_P42680_625_TIDELVECEETFGR (UniProt P42680)”, the “probe-labelled cysteine peptide fold change” value rises from -0.0741 to -0.00269.

Going from “TCIRG1_Q13488_241_KITDCFHCHVFPFLQQEEAR (UniProt Q13488)” to “THSD7A_Q9UPZ6_1459_SRPVIIQELENQHLCPEQMLETK (UniProt Q9UPZ6)”, the “probe-labelled cysteine peptide fold change” value rises from 0.0599 to 0.231.

Compared with “TEX264_Q9Y6I9_68_LFTESCSISPK (UniProt Q9Y6I9)”, “THOC2_Q8NI27_804_VPSIDVLCNEFHTPHDAAFFLSR (UniProt Q8NI27)” is lower in “probe-labelled cysteine peptide fold change” value: -0.0195 for the first, -0.0406 for the second.

Going from “TKT_P29401_413+417_MAAISESNINLCGSHCGVSIGEDGPSQMALEDLAMFR (UniProt P29401)” to “TLN1_Q9Y490_1087_CTQDLGNSTK (UniProt Q9Y490)”, the “probe-labelled cysteine peptide fold change” value falls from 0.151 to 0.00467.

Going from “TIPRL_O75663_14_DFCFGPWK (UniProt O75663)” to “TES_Q9UGI8_364_NHAVVCQGCHNAIDPEVQR (UniProt Q9UGI8)”, the “probe-labelled cysteine peptide fold change” value rises from -0.0112 to 0.115.

Compared with “THUMPD1_Q9NXG2_169_MLPISGTCK (UniProt Q9NXG2)”, “THG1L_Q9NWX6_279_TKPVPLHCDIIGDAFWK (UniProt Q9NWX6)” is lower in “probe-labelled cysteine peptide fold change” value: 0.0629 for the first, -0.117 for the second.

Compared with “THOC3_Q96J01_326_RPLLAFACDDK (UniProt Q96J01)”, “TCF20_Q9UGU0_1328_NCPAVTLTSPAK (UniProt Q9UGU0)” is lower in “probe-labelled cysteine peptide fold change” value: 0.0985 for the first, -0.359 for the second.

First: TES_Q9UGI8_412+416_FMPVEGMVFCSVECK (UniProt Q9UGI8)
Second: THADA_Q6YHU6_42_NLASLLLHCVQLTDGVSQIHYIK (UniProt Q6YHU6)
The “probe-labelled cysteine peptide fold change” value of the first is lower: -0.138 for the first, -0.0178 for the second.

First: THEMIS2_Q5TEJ8_545_KLPACEIQAPPPRPPK (UniProt Q5TEJ8)
Second: THADA_Q6YHU6_926_VHCITGALQK (UniProt Q6YHU6)
The “probe-labelled cysteine peptide fold change” value of the first is higher: -0.000191 for the first, -0.0248 for the second.

same assay, conditions: 50 µM; THP-1; incubation time: 4 h

Compared with “TDRD7_Q8NHU6_1029_CNQWSEEASMVFR (UniProt Q8NHU6)”, “TCIRG1_Q13488_25_SEEVALVQLFLPTAAAYTCVSR (UniProt Q13488)” is lower in “probe-labelled cysteine peptide fold change” value: -0.137 for the first, -0.276 for the second.

First: TIMM50_Q3ZCQ8_249_VVVVDCK (UniProt Q3ZCQ8)
Second: TEP1_Q99973_2105_TPVLIHSFPACHR (UniProt Q99973)
The “probe-labelled cysteine peptide fold change” value of the first is higher: 0.0512 for the first, 0.0331 for the second.

Compared with “THOP1_P52888_246_RKVEEAFNCR (UniProt P52888)”, “THBD_P07204_267_CQCPAGAALQADGR (UniProt P07204)” is higher in “probe-labelled cysteine peptide fold change” value: -0.205 for the first, 0.39 for the second.

Going from “TCP1_P17987_385_GANDFMCDEMER (UniProt P17987)” to “TDRD7_Q8NHU6_699+706_HMTSECFVSLPFCGK (UniProt Q8NHU6)”, the “probe-labelled cysteine peptide fold change” value rises from -0.0838 to 0.167.

Going from “TK1_P04183_230_LFAPQQILQCSPAN (UniProt P04183)” to “TEX30_Q5JUR7_129_GLICISYPLHHPK (UniProt Q5JUR7)”, the “probe-labelled cysteine peptide fold change” value rises from -0.179 to -0.0859.

Compared with “TCP1_P17987_76_VLCELADLQDK (UniProt P17987)”, “TIMM10_P62072_29_MTSACHR (UniProt P62072)” is higher in “probe-labelled cysteine peptide fold change” value: -0.00996 for the first, 0.224 for the second.

Compared with “TDRD7_Q8NHU6_692_KIEDYFHCK (UniProt Q8NHU6)”, “TK1_P04183_206_ENCPVPGKPGEAVAAR (UniProt P04183)” is lower in “probe-labelled cysteine peptide fold change” value: -0.0418 for the first, -0.0913 for the second.

First: TFCP2_Q12800_72_ILPFQYVLCAATSPAVK (UniProt Q12800)
Second: THUMPD3_Q9BV44_434_VCTPTTGR (UniProt Q9BV44)
The “probe-labelled cysteine peptide fold change” value of the first is higher: 0.193 for the first, -0.0742 for the second.

First: TGFBR1_P36897_461_LRPNIPNRWQSCEALR (UniProt P36897)
Second: TJAP1_Q5JTD0_350_NSPLPNCTYATR (UniProt Q5JTD0)
The “probe-labelled cysteine peptide fold change” value of the first is higher: 0.109 for the first, -0.216 for the second.

Going from “TEP1_Q99973_2275_EADDTCIPR (UniProt Q99973)” to “TIAL1_Q01085_51_MITEHTSNDPYCFVEFYEHR (UniProt Q01085)”, the “probe-labelled cysteine peptide fold change” value rises from -0.202 to -0.0405.

Compared with “TLE3_Q04726_528_SPISQLDCLNR (UniProt Q04726)”, “TEC_P42680_625_TIDELVECEETFGR (UniProt P42680)” is lower in “probe-labelled cysteine peptide fold change” value: -0.0787 for the first, -0.127 for the second.

Going from “TCIRG1_Q13488_241_KITDCFHCHVFPFLQQEEAR (UniProt Q13488)” to “THSD7A_Q9UPZ6_1459_SRPVIIQELENQHLCPEQMLETK (UniProt Q9UPZ6)”, the “probe-labelled cysteine peptide fold change” value falls from -0.000968 to -0.0287.

Going from “TEX264_Q9Y6I9_68_LFTESCSISPK (UniProt Q9Y6I9)” to “THOC2_Q8NI27_804_VPSIDVLCNEFHTPHDAAFFLSR (UniProt Q8NI27)”, the “probe-labelled cysteine peptide fold change” value rises from 0.0367 to 0.364.

Going from “TKT_P29401_413+417_MAAISESNINLCGSHCGVSIGEDGPSQMALEDLAMFR (UniProt P29401)” to “TLN1_Q9Y490_1087_CTQDLGNSTK (UniProt Q9Y490)”, the “probe-labelled cysteine peptide fold change” value rises from -0.129 to 0.146.

First: TIPRL_O75663_14_DFCFGPWK (UniProt O75663)
Second: TES_Q9UGI8_364_NHAVVCQGCHNAIDPEVQR (UniProt Q9UGI8)
The “probe-labelled cysteine peptide fold change” value of the first is lower: -0.0101 for the first, 0.0556 for the second.

Going from “THUMPD1_Q9NXG2_169_MLPISGTCK (UniProt Q9NXG2)” to “THG1L_Q9NWX6_279_TKPVPLHCDIIGDAFWK (UniProt Q9NWX6)”, the “probe-labelled cysteine peptide fold change” value falls from -0.0638 to -0.263.

Compared with “THOC3_Q96J01_326_RPLLAFACDDK (UniProt Q96J01)”, “TCF20_Q9UGU0_1328_NCPAVTLTSPAK (UniProt Q9UGU0)” is lower in “probe-labelled cysteine peptide fold change” value: -0.09 for the first, -0.337 for the second.

Going from “TES_Q9UGI8_412+416_FMPVEGMVFCSVECK (UniProt Q9UGI8)” to “THADA_Q6YHU6_42_NLASLLLHCVQLTDGVSQIHYIK (UniProt Q6YHU6)”, the “probe-labelled cysteine peptide fold change” value rises from -0.0421 to 0.0472.

Compared with “THEMIS2_Q5TEJ8_545_KLPACEIQAPPPRPPK (UniProt Q5TEJ8)”, “THADA_Q6YHU6_926_VHCITGALQK (UniProt Q6YHU6)” is higher in “probe-labelled cysteine peptide fold change” value: -0.112 for the first, -0.0781 for the second.

Source: the supplement of paper PMC12067093, “Discovery and optimisation of a covalent ligand for TRIM25 and its application to targeted protein ubiquitination” (Chemical Science, 2025)
